# Test results from patent publication US20150126534A1, “ENZYME AND RECEPTOR MODULATION” (Chroma Therapeutics Ltd, priority 2005, published 2015).
# System: HCT116 (non-monocytic cell line)
# Experiment: Cell proliferation inhibition assay (WST-1), HCT116
# Type: cell-based
# Conditions: Homo sapiens, HCT-116, read-out: Cell proliferation IC50 nM (HCT116)
# Procedure: Following 24 h of growth cells were treated with compound. Plates were then re-incubated for a further 72-96 h before a WST-1 cell viability assay was conducted according to the suppliers (Roche Applied Science) instructions.
# Data were expressed as a percentage inhibition of the control, measured in the absence of inhibitor, as follows: —
# where S^i is the signal in the presence of inhibitor and S^o is the signal in the presence of DMSO.
# Dose response curves were generated from 8 concentrations (top final concentration 10 μM, with 3-fold dilutions), using 6 replicates.
smiles,measurement,value
"O=C(CCCCCCC(=O)Nc1ccccc1)NO [Compound 7, Suberoylanilide hydroxamic acid, reference compound]",IC50,700 nM
